From PubChem BioAssay AID2685 (National Center for Advancing Translational Sciences (NCATS), 2010)
The other results are listed elsewhere or left out. Further columns of the screen follow, without active or inactive calls. The list favours compounds with an active or inconclusive main result. The note in brackets gives the kind of curve behind each potency; many fits are weak.

Assay: qHTS Assay for Lipid Storage Modulators in Drosophila S3 Cells;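 for cell number change: cells counted by Cell Tracker Red CMTPX staining in the red channel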
Settings: BODIPY lipid droplet fluorescence, 18-24 h; for cell number change: measured here: cell count max response, cells fed with added oleic acid
Procedure, shortened: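 Drosophila S3 cells got compounds at several concentrations plus oleic acid (400 uM solution). Laser-scanning cytometry with 488 nm excitation read lipid droplets at 500-530 nm and cells at 575-640 nm. Percent activity was relative to 20 uM Triacsin C.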

[1] = measured here: lipid fluorescence (Fed channel) AC50, cells fed with added oleic acid
[2] = measured here: cell number channel AC50, cells fed with added oleic acid

SMILES: COc1ccc(S(=O)(=O)N2CCOCC2)cc1N(C)S(=O)(=O)c1ccc(C)cc1
- cell number change: -5.28%

SMILES: Cc1nnc2n(-c3ccccc3)c(=O)c3c4c(sc3n12)COC(C)(C)C4
- cell number change: 9.85%
- AC50 [1]: 29.1 µM [falling, single point]

SMILES: COCC(=O)Nc1ccc(OC)c(Cl)c1
- cell number change: 21.5%
- AC50 [1]: 0.082 µM [rising, full curve, poor fit]

SMILES: O=C1OC(c2ccc(F)cc2)=N/C1=C\c1ccc(Br)o1
- cell number change: -22.3%
- AC50 [1]: 0.00517 µM [falling, full curve, poor fit]

SMILES: O=C(Cn1c2c(c(=O)n3ncnc13)CCC2)N/N=C/c1ccc(Cl)cc1
- cell number change: -1.45%
- AC50 [2]: 0.731 µM [falling, single point]

SMILES: Cc1nn(CC(=O)N(C)C2CCS(=O)(=O)C2)c(C)c1[N+](=O)[O-] (stereo not drawn)
- cell number change: 7.63%

SMILES: O=C1COCCOCCOCC(=O)NCCN1
- cell number change: -57.5%
- AC50 [2]: 29.1 µM [falling, single point]

SMILES: O=C(Nc1cccc2c1N(C(=O)c1ccco1)CCC2)c1ccco1
- cell number change: 28.6%
- AC50 [1]: 20.6 µM [rising, single point]

SMILES: COc1ccc(NS(=O)(=O)c2ccc(Cl)c(NC(=O)c3cccnc3Cl)c2)cc1
- cell number change: 6.9%
- AC50 [2]: 0.146 µM [rising, full curve, poor fit]
- AC50 [1]: 1.84 µM [rising, partial curve, poor fit]

SMILES: Cc1snc(SCC(=O)c2ccc(Cl)cc2)c1C#N
- cell number change: 5.28%
- AC50 [1]: 29.1 µM [rising, single point]

SMILES: O=C(NCc1ccccc1Br)c1cccc2c1C(=O)c1ccc(N3CCOCC3)cc1S2(=O)=O
- cell number change: -70.8%
- AC50 [2]: 29.1 µM [falling, single point]

SMILES: COc1ccc(-c2n[nH]c(=S)n2-c2ccc(Br)cc2)cc1OC
- cell number change: 0.265%
- AC50 [1]: 29.1 µM [rising, single point]

SMILES: COc1ccc(N2CCCC2)c(NC(=O)c2ccc([N+](=O)[O-])o2)c1
- AC50 [1]: 14.6 µM [falling, partial curve]

SMILES: CC(O)CC(C(=O)NNc1ccccc1)C(=O)NNc1ccccc1 (stereo not drawn)
- cell number change: 41%
- AC50 [2]: 0.366 µM [rising, full curve, poor fit]
- AC50 [1]: 6.51 µM [rising, partial curve, poor fit]

SMILES: C#CCSc1nnc(-c2c[nH]c3ccccc23)n1C
- AC50 [1]: 0.731 µM [rising, single point]

SMILES: CC1=CN2C(=NC(=O)CC2(C)C(=O)N(CC(=O)NC2CCCC2)Cc2ccccc2)C=C1 (stereo not drawn)
- cell number change: 21.2%
- AC50 [1]: 6.51 µM [rising, single point]

SMILES: Cn1c(=O)c(C(=O)CN2CCN(Cc3ccc4c(c3)OCO4)CC2)c(N)n(Cc2ccccc2)c1=O
- cell number change: -1.25%
- AC50 [1]: 0.517 µM [falling, single point]

SMILES: Cc1ccc(NC(=O)Cn2nc(C)c([N+](=O)[O-])c2C)cc1Cl
- cell number change: -12.4%

SMILES: COc1ccc(S(=O)(=O)N2CCN=C2SCc2cccc(F)c2)cc1
- cell number change: 12.1%
- AC50 [1]: 29.1 µM [rising, single point]

SMILES: CCOc1cc(CNC2CCCC2)cc(Cl)c1OCc1ccccc1
- cell number change: -25%
- AC50 [1]: 29.1 µM [falling, single point]

SMILES: c1ccc2c(CN3CCCCC3)csc2c1
- cell number change: -18.1%
- AC50 [1]: 1.64 µM [falling, full curve, poor fit]

SMILES: O=S(=O)(c1ccccc1)N1CCN(c2nnnn2-c2ccccc2)CC1
- cell number change: 2.51%
- AC50 [1]: 29.1 µM [rising, single point]

SMILES: O=C(CSc1cn(CCNC(=O)c2ccc3ccccc3c2)c2ccccc12)NCc1ccco1
- cell number change: 30.6%
- AC50 [2]: 4.61 µM [rising, full curve, poor fit]
- AC50 [1]: 4.61 µM [rising, full curve]

SMILES: O=C(Nc1ccc2c(c1)OCO2)c1cccc(F)c1
- cell number change: 6.83%
- AC50 [1]: 0.164 µM [rising, full curve, poor fit]

SMILES: COc1ccc(Oc2cc(C(F)(F)F)nc(N(C)C)n2)cc1
- cell number change: -43.3%

SMILES: O=C(NNC(=S)Nc1ccc(Cl)cc1Cl)c1ccc(N2CCOCC2)c([N+](=O)[O-])c1
- cell number change: 1.87%
- AC50 [1]: 11.6 µM [rising, single point]

SMILES: O=C1CCCN1C(=O)CCC(=O)N1CCCC1=O
- cell number change: -20.6%
- AC50 [1]: 0.92 µM [falling, full curve]

SMILES: CC(C)(OC(=O)c1cccs1)c1cc2ccccc2c(=O)o1
- cell number change: -5.63%

SMILES: CC(Nc1ccc2c(c1)OCCO2)C(=O)N1CCc2ccccc21 (stereo not drawn)
- AC50 [2]: 0.092 µM [rising, single point]

SMILES: COc1cc(OC)cc(-c2nnc(SCC(=O)NCc3cccs3)o2)c1
- cell number change: 61.2%
- AC50 [2]: 3.66 µM [rising, full curve]
- AC50 [1]: 4.11 µM [rising, partial curve]

SMILES: Cc1cc2ccccc2n2c(SCC(=O)N3CCc4ccccc4C3)nnc12
- cell number change: -25.1%
- AC50 [1]: 29.1 µM [falling, single point]

SMILES: COC(=O)Cc1c(C)c2ccc(OCC(=O)N3CCCC(C)C3)c(C)c2oc1=O (stereo not drawn)
- cell number change: -33.3%
- AC50 [2]: 32.6 µM [falling, single point]
- AC50 [1]: 29.1 µM [falling, single point]

SMILES: Cc1ccccc1OCC(=O)NC(Cc1c[nH]c2ccccc12)C(=O)O (stereo not drawn)
- cell number change: 20.1%
- AC50 [1]: 13 µM [rising, single point]

SMILES: CC(C)(C)NC(=O)COC(=O)c1cc(Br)ccc1Cl
- cell number change: 12.1%
- AC50 [1]: 23.1 µM [rising, partial curve, poor fit]

SMILES: COc1ccc(C2CC(=O)N(c3ccccc3)C3=C2C(=O)CCC3)cc1 (stereo not drawn)
- cell number change: 17.3%

SMILES: CC1CCCCN1c1cc(C#N)c(C#N)cc1[N+](=O)[O-] (stereo not drawn)
- cell number change: 144%

SMILES: COc1ccccc1C(=O)NCCC(=O)NCC1CCCO1 (stereo not drawn)
- cell number change: 1.43%

SMILES: CC(=O)N1CC(C)Sc2ccc(S(=O)(=O)N3CCCCC3)cc21 (stereo not drawn)
- cell number change: 8.66%
- AC50 [1]: 20.6 µM [rising, single point]

SMILES: O=C(O)c1ccc(/C=N/Nc2ccc(Cl)nn2)cc1
- cell number change: -3.36%

SMILES: Cc1cccc(NS(=O)(=O)c2ccc(NS(=O)(=O)c3cccs3)cc2)c1
- cell number change: -7.56%

SMILES: CC1CCCC(NC(=O)CCn2c(=S)oc3ccccc32)C1C (stereo not drawn)
- AC50 [1]: 0.731 µM [rising, single point]

SMILES: COc1ccccc1OCC(=O)Nc1nc(C)c(C)s1
- cell number change: 8.4%
- AC50 [1]: 29.1 µM [rising, single point]

SMILES: O=C1CCc2cc(NS(=O)(=O)c3ccc(Cl)cc3)cc3c2N1CC3
- AC50 [1]: 0.146 µM [falling, full curve, poor fit]

SMILES: COC(=O)Cn1c(=O)cnc2ccccc21
- AC50 [1]: 20.6 µM [falling, partial curve]

SMILES: CCOc1ccc(C(C)=O)cc1N1C(=O)C2C(C1=O)C1C=CC2C12CC2 (stereo not drawn)
- cell number change: 4.32%

SMILES: COc1ccccc1NS(=O)(=O)c1cc(C(=O)NCC(C)(C)N2CCOCC2)ccc1C
- AC50 [1]: 6.51 µM [falling, single point]

SMILES: Cc1ccc(/C=C2/SC(=S)N(CCCC(=O)Nc3ccc(O)cc3)C2=O)cc1
- cell number change: -39.8%
- AC50 [2]: 20.6 µM [falling, single point]
- AC50 [1]: 20.6 µM [falling, single point]

SMILES: Cc1nn(CCOc2ccccc2)c(=O)n1-c1ccc(F)cc1
- cell number change: -25.5%
- AC50 [1]: 32.6 µM [falling, single point]

SMILES: COc1ccc2cc(CN(CC3COCCO3)S(=O)(=O)c3c(C)cc(C)cc3C)c(=O)[nH]c2c1 (stereo not drawn)
- cell number change: 19.1%
- AC50 [1]: 29.1 µM [falling, single point]

SMILES: O=C(NC(=S)NCCOCc1ccc(Cl)cc1)c1cccnc1
- cell number change: -50.6%
- AC50 [2]: 29.1 µM [falling, single point]
- AC50 [1]: 1.16 µM [falling, partial curve]

SMILES: Cc1ccc(C(=O)Oc2ccc(N3C(=O)CCC3=O)c(C)c2)cc1
- cell number change: 136%
- AC50 [2]: 29.1 µM [rising, partial curve]

SMILES: COc1cc(C(=O)OCC(=O)NC2CCS(=O)(=O)C2)c([N+](=O)[O-])cc1OC (stereo not drawn)
- cell number change: -40.3%
- AC50 [1]: 0.651 µM [falling, single point]

SMILES: CCc1ccc(NC(=O)CSc2nc3ccccc3c(=O)n2CCN2CCOCC2)cc1
- cell number change: -4.97%
- AC50 [1]: 5.17 µM [falling, single point]

SMILES: COc1ccc(OCc2nnc(SCC(N)=O)n2N)cc1
- cell number change: -27.7%
- AC50 [2]: 0.651 µM [falling, full curve]
- AC50 [1]: 23.1 µM [falling, partial curve]

SMILES: CCn1cc(CNC(=O)c2ccc(Cl)c([N+](=O)[O-])c2)c(C)n1
- cell number change: -5.81%
- AC50 [1]: 20.6 µM [falling, single point]

SMILES: COc1ccc(/C=N/Nc2nc3ccccc3o2)cc1OC
- cell number change: -22.3%
- AC50 [2]: 3.26 µM [falling, full curve, poor fit]
- AC50 [1]: 3.26 µM [falling, full curve]

SMILES: Cc1cccc(C(=O)NCc2nnc(SCC(=O)NC(C)c3ccccc3)n2C)c1 (stereo not drawn)
- cell number change: 6.08%
- AC50 [2]: 1.64 µM [rising, partial curve]
- AC50 [1]: 0.146 µM [rising, full curve, poor fit]

SMILES: O=C(CCSc1ccccc1)NCc1cccnc1
- cell number change: 0.549%
- AC50 [1]: 6.51 µM [rising, partial curve]

SMILES: COc1ccc(S(=O)(=O)N2CCOC2CNC(=O)C(=O)NCCN2CCOCC2)cc1OC (stereo not drawn)
- cell number change: 9.73%
- AC50 [1]: 0.326 µM [rising, full curve, poor fit]

SMILES: Cc1ccc(NS(=O)(=O)c2ccc(C)c(C(=O)N3CCOCC3)c2)cc1
- cell number change: -4.05%

SMILES: COc1ccccc1Cn1c(CCCO)nc2ccccc21
- cell number change: 25.7%
- AC50 [1]: 1.16 µM [rising, partial curve]

SMILES: COC(=O)N1C(=O)[C@](CC(C)C)(c2ccccc2)N1C(=O)OC
- cell number change: 4.49%

SMILES: Cc1nnc(SCC(=O)c2ccc(Br)cc2)s1
- cell number change: -2.55%

SMILES: Cc1cc(C(=O)NP(=O)(N2CC(C)OC(C)C2)N2CC(C)OC(C)C2)c(C)n1C1CC1 (stereo not drawn)
- cell number change: -17.8%
- AC50 [2]: 0.0326 µM [falling, full curve, poor fit]
- AC50 [1]: 0.259 µM [falling, full curve]
